PubChem BioAssay AID1508597, Cure First – 2020

- Test: 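Knock-downs altering ovarian cancer cell survival with or without PARP inhibitor rucaparib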 (primary screen)
- Cells: human ovarian carcinoma lines grown from tumours: OCI-P5x (papillary serous) and OCI-C5x (clear cell)
- Knock-down reagent: siRNA pool against human genes, 1.25 pmol siRNA per well
- Time to read-out: 72 h or 96 h, depending on the cell culture
- Conditions: rucaparib 20 µM (about IC30) or vehicle, present until read-out
- Rucaparib or vehicle: Rucaparib
- Cell line: OCI-C5x (clear cell)
- Detection: 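ATP luminescence measured at 72 or 96 h according to the culture, then normalised and expressed as percent viability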
- Reading the numbers: viability, normalised: higher = more viable cells remaining
- Hit rule: 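a well counts as a hit if its normalised viability is under 80 percent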
- Meaning of the calls: active = viability under 80%; inactive = viability 80% or more
Shown is a random part of the about 2,100 reagents, in one setting of the screen. 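Calls flag viability under 80% in either arm, not effects specific to rucaparib; the reference for percent is not stated.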 Entries without a mark were called inactive. A reagent listed more than once was tested more than once; the source does not tell the runs apart. Not given: the 100% reference.

| gene symbol | technical replicate | viability, normalised (%) |
| --- | --- | --- |
| CD40LG (CD40 ligand) | 1 | 79.7 (active) |
| CD40LG (CD40 ligand) | 2 | 68.5 (active) |
| CD40LG (CD40 ligand) | 3 | 59.6 (active) |
| GMEB1 (glucocorticoid modulatory element binding protein 1) | 1 | 43.6 (active) |
| GMEB1 (glucocorticoid modulatory element binding protein 1) | 2 | 32.2 (active) |
| GMEB1 (glucocorticoid modulatory element binding protein 1) | 3 | 36.6 (active) |
| STK3 (serine/threonine kinase 3) | 1 | 52.2 (active) |
| STK3 (serine/threonine kinase 3) | 2 | 38.5 (active) |
| STK3 (serine/threonine kinase 3) | 3 | 37.9 (active) |
| EMSY (EMSY transcriptional repressor, BRCA2 interacting) | 1 | 71.4 (active) |
| EMSY (EMSY transcriptional repressor, BRCA2 interacting) | 1 | 58.2 (active) |
| EMSY (EMSY transcriptional repressor, BRCA2 interacting) | 2 | 64.5 (active) |
| EMSY (EMSY transcriptional repressor, BRCA2 interacting) | 2 | 41.6 (active) |
| EMSY (EMSY transcriptional repressor, BRCA2 interacting) | 3 | 34.1 (active) |
| EMSY (EMSY transcriptional repressor, BRCA2 interacting) | 3 | 66.6 (active) |
| SIN3A (SIN3 transcription regulator family member A) | 1 | 25.1 (active) |
| SIN3A (SIN3 transcription regulator family member A) | 2 | 23 (active) |
| SIN3A (SIN3 transcription regulator family member A) | 3 | 18.2 (active) |
| ZGPAT (zinc finger CCCH-type and G-patch domain containing) | 1 | 66.4 (active) |
| ZGPAT (zinc finger CCCH-type and G-patch domain containing) | 2 | 81.6 |
| ZGPAT (zinc finger CCCH-type and G-patch domain containing) | 3 | 61 (active) |
| GRK4 (G protein-coupled receptor kinase 4) | 1 | 37.5 (active) |
| GRK4 (G protein-coupled receptor kinase 4) | 2 | 42.1 (active) |
| GRK4 (G protein-coupled receptor kinase 4) | 3 | 33.6 (active) |
| ITPK1 (inositol-tetrakisphosphate 1-kinase) | 1 | 51.3 (active) |
| ITPK1 (inositol-tetrakisphosphate 1-kinase) | 2 | 55.3 (active) |
| ITPK1 (inositol-tetrakisphosphate 1-kinase) | 3 | 55.6 (active) |
| DDX19A (DEAD-box helicase 19A) | 1 | 60 (active) |
| DDX19A (DEAD-box helicase 19A) | 2 | 47.4 (active) |
| DDX19A (DEAD-box helicase 19A) | 3 | 43 (active) |
| AK1 (adenylate kinase 1) | 1 | 50 (active) |
| AK1 (adenylate kinase 1) | 2 | 77.5 (active) |
| AK1 (adenylate kinase 1) | 3 | 55.6 (active) |
| G6PC1 (glucose-6-phosphatase catalytic subunit 1) | 1 | 53.5 (active) |
| G6PC1 (glucose-6-phosphatase catalytic subunit 1) | 2 | 44.8 (active) |
| G6PC1 (glucose-6-phosphatase catalytic subunit 1) | 3 | 59.2 (active) |

The list goes on, starting with the last 2 of the part before.
| gene symbol | technical replicate | viability, normalised (%) |
| --- | --- | --- |
| G6PC1 (glucose-6-phosphatase catalytic subunit 1) | 2 | 44.8 (active) |
| G6PC1 (glucose-6-phosphatase catalytic subunit 1) | 3 | 59.2 (active) |
| FBXL19 (F-box and leucine rich repeat protein 19) | 1 | 56 (active) |
| FBXL19 (F-box and leucine rich repeat protein 19) | 2 | 37.3 (active) |
| FBXL19 (F-box and leucine rich repeat protein 19) | 3 | 46.6 (active) |
| DCLRE1C (DNA cross-link repair 1C) | 1 | 48.4 (active) |
| DCLRE1C (DNA cross-link repair 1C) | 1 | 35.8 (active) |
| DCLRE1C (DNA cross-link repair 1C) | 2 | 23 (active) |
| DCLRE1C (DNA cross-link repair 1C) | 2 | 46.1 (active) |
| DCLRE1C (DNA cross-link repair 1C) | 3 | 49.5 (active) |
| DCLRE1C (DNA cross-link repair 1C) | 3 | 23.1 (active) |
| HDGFL3 (HDGF like 3) | 1 | 45.5 (active) |
| HDGFL3 (HDGF like 3) | 2 | 34.8 (active) |
| HDGFL3 (HDGF like 3) | 3 | 46.3 (active) |
| ADCK2 (aarF domain containing kinase 2) | 1 | 88 |
| ADCK2 (aarF domain containing kinase 2) | 2 | 61.9 (active) |
| ADCK2 (aarF domain containing kinase 2) | 3 | 77.4 (active) |
| CETN2 (centrin 2) | 1 | 43.3 (active) |
| CETN2 (centrin 2) | 2 | 45.4 (active) |
| CETN2 (centrin 2) | 3 | 53.1 (active) |
| DCK (deoxycytidine kinase) | 1 | 56.3 (active) |
| DCK (deoxycytidine kinase) | 1 | 48.6 (active) |
| DCK (deoxycytidine kinase) | 2 | 63 (active) |
| DCK (deoxycytidine kinase) | 2 | 49.7 (active) |
| DCK (deoxycytidine kinase) | 3 | 60 (active) |
| DCK (deoxycytidine kinase) | 3 | 66.3 (active) |
